Results deposited as PubChem BioAssay AID1159584 (Peter MacCallum Cancer Centre, 2016).

Test: 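Knock-downs that harm CDH1-null cells more than parental MCF10A cells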 (primary screen)
System: human MCF10A breast epithelial cells, parental and CDH1-null
Reagents: siRNA against human genes
Read-out: 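ATP luminescence (CellTiter-Glo) viability per line relative to mean mock wells over all plates, and the ratio of CDH1-null to parental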
Direction: CDH1-null / parental viability ratio: higher = CDH1-null cells survive relatively better than parental; CDH1-null viability vs mock: higher = more viable CDH1-null cells
Here is a random part of about 18,000 reagents tested. Further read-outs or replicates are left out here. The record does not give: the amount of reagent, the time to read-out.

gene symbol | PubChem SID | CDH1-null / parental viability ratio | CDH1-null viability vs mock (fraction of mock)
ANKRD13A | SID134326744 | 0.99 | 0.81
UGT1A5 | SID134329476 | 0.84 | 0.59
SNTG2 | SID135624151 | 1.05 | 0.88
HEPACAM | SID152152327 | 0.88 | 0.44
MFSD1 | SID152156586 | 1.15 | 0.98
PDLIM4 | SID134319433 | 1.21 | 0.82
HTR7 | SID152149599 | 0.72 | 0.68
AGPAT1 | SID134310089 | 0.93 | 0.86
CYLC1 | SID152154683 | 0.76 | 0.62
CASK | SID56479000 | 0.92 | 0.78
OR1J2 | SID135624547 | 1.2 | 1.09
LCN9 | SID135625284 | 0.77 | 0.5
BZW2 | SID134324255 | 0.8 | 0.72
PAX9 | SID152147881 | 1.13 | 0.51
PPP2R5D | SID134314511 | 1.27 | 0.89
FOXO3 | SID135620601 | 0.9 | 0.92
SEMA4F | SID152155663 | 1.04 | 0.94
ZNF526 | SID134325816 | 1.01 | 0.84
SPRR2E | SID152155183 | 0.97 | 0.64
IL24 | SID135621481 | 1.05 | 0.78
CTCF | SID135623925 | 1.25 | 0.65
FER | SID152156672 | 0.81 | 0.74
LRRC14B | SID152155249 | 1.02 | 0.94
JCHAIN | SID152154477 | 0.92 | 0.55
COLGALT1 | SID134322033 | 0.9 | 0.73
IL3 | SID152150332 | 0.89 | 0.78
GPR50 | SID152153795 | 1.13 | 0.88
ANAPC4 | SID134317858 | 0.87 | 0.54
PLEKHG4B | SID152155774 | 1.28 | 1
OR5V1 | SID152148916 | 1.41 | 0.62
KRTAP19-6 | SID135623553 | 0.95 | 0.76
MEF2A | SID134314117 | 0.88 | 0.92
ARFIP1 | SID152150717 | 0.84 | 0.52
SH3TC2 | SID152147815 | 0.62 | 0.31
HPSE2 | SID152152514 | 0.8 | 0.64
FRMD4A | SID152155715 | 1.05 | 0.84
DES | SID135622164 | 1.15 | 0.94
RAB6D | SID135625563 | 1.19 | 0.88
XPR1 | SID134311182 | 1.37 | 1.25
FCGBP | SID152147469 | 0.8 | 0.76
ACP4 | SID134313243 | 1.6 | 0.77
CLTA | SID152147701 | 0.87 | 0.65
RBM28 | SID134324752 | 0.7 | 0.42
FAM53C | SID134324857 | 0.76 | 0.62
PODXL | SID152150479 | 1.02 | 0.97
CCDC102A | SID134319144 | 0.86 | 0.83
HNRNPA2B1 | SID152148213 | 0.67 | 0.44
RBCK1 | SID152150694 | 1.01 | 0.97
CYP17A1 | SID135621573 | 1.08 | 0.7
BAIAP3 | SID134317878 | 1.19 | 0.7
PPAT | SID134311426 | 1.35 | 0.92
ZNF227 | SID135623567 | 0.76 | 0.79
BCAT1 | SID152149798 | 1.17 | 0.94
WFDC9 | SID134321416 | 0.56 | 0.36
MEIOC | SID152148949 | 0.97 | 1.01
RASA2 | SID152155519 | 1.1 | 1.08
TK1 | SID152150808 | 1.1 | 0.92
CYRIA | SID152155958 | 0.88 | 0.68
KDM7A | SID135624505 | 1.02 | 0.91
RNPC3 | SID152146834 | 1.23 | 1.06
LEMD2 | SID134321840 | 1.16 | 0.86
SPRY4 | SID134319500 | 1 | 0.6
UROD | SID152156156 | 1.14 | 0.8
OR1L6 | SID152154077 | 1.29 | 0.44
IRF1 | SID134316025 | 0.9 | 0.72
SF3B5 | SID134318812 | 1.38 | 0.55
N4BP2L1 | SID135622893 | 1.16 | 1
CLCN3 | SID152151629 | 1.1 | 0.88

No new results follow: 6 of the entries above.
gene symbol | PubChem SID | CDH1-null / parental viability ratio | CDH1-null viability vs mock (fraction of mock)
PODXL | SID152150479 | 1.02 | 0.97
CCDC102A | SID134319144 | 0.86 | 0.83
HNRNPA2B1 | SID152148213 | 0.67 | 0.44
RBCK1 | SID152150694 | 1.01 | 0.97
CYP17A1 | SID135621573 | 1.08 | 0.7
BAIAP3 | SID134317878 | 1.19 | 0.7
